# From PubChem BioAssay AID2685 (National Center for Advancing Translational Sciences (NCATS), 2010)
# This is one part of the list. Further columns of the screen follow, without active or inactive calls. Most of these compounds were active or inconclusive in the main read-out, so they are no random draw. The note in brackets gives the kind of curve behind each potency; many fits are weak.
# Assay: qHTS Assay for Lipid Storage Modulators in Drosophila S3 Cells;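 as to cell number change: cells counted by Cell Tracker Red CMTPX staining in the red channel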
# Conditions: BODIPY lipid droplet fluorescence, 18-24 h; for cell number change: measured here: cell count max response, cells fed with added oleic acid
# How it was run: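 Drosophila S3 cells got compounds at several concentrations plus oleic acid (400 uM solution). Laser-scanning cytometry with 488 nm excitation read lipid droplets at 500-530 nm and cells at 575-640 nm. Percent activity was relative to 20 uM Triacsin C.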
# [1] = measured here: lipid fluorescence (Fed channel) AC50, cells fed with added oleic acid
# [2] = measured here: cell number channel AC50, cells fed with added oleic acid
SMILES,cell number change,AC50 [1],AC50 [2]
O=C(COC(=O)c1ccccc1NC(=O)c1ccco1)Nc1ccc2c(c1)OCO2,-8.33%,,
O=[N+]([O-])c1nn(-c2ccc3c(c2)OCCO3)n(O)c1=Nc1ccccc1,0.704%,"29.1 µM [falling, single point]",
COC(=O)c1sc(N2C(=O)C(O)=C(C(=O)c3ccc(C)o3)C2c2ccc([N+](=O)[O-])cc2)nc1C (stereo not given),-1.62%,,
CC1(NC(=O)Nc2cccc3ccccc23)CCS(=O)(=O)C1 (stereo not given),-1.74%,"29.1 µM [rising, single point]",
Cc1cc2c(cc1C)NC(c1ccccn1)C1=C(CC(C)(C)CC1=O)N2 (stereo not given),,,"6.51 µM [falling, single point]"
Cn1c(=O)n(C)c2cc([N+](=O)[O-])c(N3CCN(C(=O)c4cccc(Cl)c4)CC3)cc21,-16%,"18.4 µM [falling, single point]",
Cc1sc(NC(=O)CN2CCN(c3ccccn3)CC2)c(C#N)c1C,-2.89%,"5.17 µM [rising, single point]",
CC1CCN(C(=O)CCN2C(=O)/C(=C/c3cccs3)SC2=S)CC1,-2.86%,"29.1 µM [falling, single point]",
CCC(C)(C)C1CCC2(CC1)NC(=O)N(CC(=O)NC(C)CCc1ccccc1)C2=O (stereo not given),12.9%,,
CCC1(CC)Cc2ccccc2-c2nc(-c3ccccc3)oc(=O)c21,21.5%,,
CC12CCC(=O)N1C(C(=O)Nc1ccccc1F)CS2 (stereo not given),-27.8%,,"0.184 µM [falling, full curve, poor fit]"
CC1CN(c2nc(Nc3ccccc3)nc(N)c2[N+](=O)[O-])CC(C)O1 (stereo not given),-25.6%,"23.1 µM [falling, single point]",
CCN(CC)CCn1c(NC(=O)c2ccccc2O)nc2ccccc21,-25.2%,"2.91 µM [falling, partial curve]",
Nc1ccc(-c2ncc(-c3ccccc3)o2)cc1,-5.56%,,
CCc1sc(C(=O)Nc2ccsc2C(=O)OC)cc1Br,-31.6%,,"0.0651 µM [falling, full curve]"
CCC(C)NC(=O)CSc1nc2c(sc3ccccc32)c(=O)n1CCCN1CCOCC1 (stereo not given),,,"2.91 µM [rising, single point]"
C=CCc1c(C)nc(-c2ccccc2)nc1Nc1ccc(O)cc1,-37.8%,"11.6 µM [falling, partial curve, poor fit]","29.1 µM [falling, single point]"
NNc1nc2c(F)cc(F)cc2s1,-36.3%,"5.8 µM [falling, full curve]","16.4 µM [falling, single point]"
CCCCn1c(N)c(N(CC)C(=O)c2ccc(Cl)c([N+](=O)[O-])c2)c(=O)[nH]c1=O,4.2%,,

SMILES,cell number change,AC50 [1],AC50 [2]
COCCN(CC(=O)Nc1ccccc1)S(=O)(=O)c1ccc(S(=O)(=O)N2CCCC2)cc1,9.25%,"0.326 µM [falling, partial curve, poor fit]",
CCOC(=O)C1=C(C)NC(=O)NC1c1ccc(OCCO)c(OC)c1 (stereo not given),,"6.51 µM [falling, single point]","0.731 µM [falling, single point]"
Cn1c(SCc2ccccc2Cl)nc2ccccc21,,"29.1 µM [rising, single point]","5.8 µM [rising, single point]"
Cc1ccccc1NS(=O)(=O)c1nnc(NC(=O)c2ccc(Br)cc2)s1,4.13%,"6.51 µM [falling, partial curve, poor fit]",
CCC1CCCCN1C(=O)c1cc2cc(Br)ccc2oc1=O (stereo not given),11.1%,"0.731 µM [falling, full curve, poor fit]",
COc1ccc(NC(=O)Cc2nnc(SCC(=O)NC3=NCCS3)n2C)cc1,22.2%,,
Cc1ccc([N+](=O)[O-])c(OCCCNCC(C)O)c1 (stereo not given),,"17.8 µM [rising, single point]",
Cc1ccc(C(=O)NC(=S)N2CC(C)OC(C)C2)cc1[N+](=O)[O-] (stereo not given),-34.4%,,"32.6 µM [falling, single point]"
O=C(NNC(=O)C1CCN(S(=O)(=O)c2ccc(Cl)cc2)CC1)c1ccc(S(=O)(=O)N2CCCCC2)cc1,-5.46%,"8.2 µM [rising, partial curve]","6.51 µM [rising, single point]"
CCCCc1c(C)nc2ccc(C)cc2c1SCCC(=O)O,1.47%,,
COc1ccc(/C(C)=N/Nc2ccc(C(=O)O)cc2)cc1OC,-2.3%,"2.31 µM [rising, full curve, poor fit]","0.731 µM [rising, single point]"
O=C1CN(C(=O)COC(=O)c2cccc(S(=O)(=O)NCc3ccccc3)c2)c2ccccc2N1,-32%,"7.31 µM [falling, partial curve]","25.9 µM [falling, single point]"
Cn1c(=O)c2c(nc(-n3ccnc3)n2Cc2ccc([N+](=O)[O-])cc2)n(C)c1=O,,"0.0411 µM [rising, full curve, poor fit]","0.184 µM [rising, single point]"
CCN1CCN(c2ccc(S(=O)(=O)N3CCCCC3)cc2NC(=O)c2sccc2C)CC1,-24.3%,"18.4 µM [falling, single point]",
CCOc1ccc(S(=O)(=O)N(C)c2ccc(OCC(=O)NCC3CCCO3)cc2)cc1 (stereo not given),-19.5%,"0.259 µM [falling, full curve, poor fit]",
Fc1ccc(-c2nnc(N3CCOCC3)c3ccccc23)cc1F,,"0.517 µM [rising, full curve]",
N#Cc1c(N)nc2c(c1-c1ccccc1)CCCC2,37.5%,,"7.31 µM [rising, single point]"
Cc1c(C(=O)N(Cc2ccncc2)CC2CCCO2)oc2c(F)cccc12 (stereo not given),-34%,"18.4 µM [falling, partial curve, poor fit]","29.1 µM [falling, single point]"
Cc1cccc(NC2=C/C(=N/S(=O)(=O)c3cccs3)c3ccccc3C2=O)c1,16.8%,"5.8 µM [rising, partial curve]",

# Full records, quoted from the list.
# `Cn1c(=O)c2c(nc(-n3ccnc3)n2Cc2ccc([N+](=O)[O-])cc2)n(C)c1=O` is listed with AC50 [1]: 0.0411 µM [rising, full curve, poor fit]; AC50 [2]: 0.184 µM [rising, single point]
# `Cc1cccc(NC2=C/C(=N/S(=O)(=O)c3cccs3)c3ccccc3C2=O)c1` is listed with cell number change: 16.8%; AC50 [1]: 5.8 µM [rising, partial curve]
